From PubChem BioAssay AID504467 (National Center for Advancing Translational Sciences (NCATS), 2011)
Out of some 330,000 compounds screened, about 7,700 (2.3%) were called active. This list was built around the results that the source calls inconclusive (neither active nor inactive); the mix of calls is not that of the screen. The call rests on the fitted dose curve; in most records, active means well fitted inhibition curve with a large enough effect; inconclusive means small, poorly fitted or top-dose-only effect, or effect the other way; inactive means flat fitted curve, though single readings scatter. Where the call is inconclusive, the potency comes from a doubtful curve fit.
Potency means the concentration at half of the fitted maximal effect.

Assay: qHTS screen for small molecules that inhibit ELG1-dependent DNA repair in human embryonic kidney (HEK293T) cells expressing luciferase-tagged ELG1; further: nearly all actives have a fitted effect of over 55% in size
Details: HEK293T ELG1-luciferase reporter, luminescence, 16 h, DNA damage induced by 5-fluorouridine; series mostly up to 46.1 µM
Outline: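 DMSO vehicle served as the neutral condition. Each well held 2,000 cells given 5-fluorouridine plus compound; after 16 hr at 37 °C/5% CO2, ONE-Glo was added and luciferase measured 30 min later.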
With `CC1=C(C(=O)OCC2CCCO2)C(c2ccsc2)C2=C(CCCC2=O)N1` (configuration not stated) the Potency was “inactive”.
With `Cc1cccc(NC(=S)N(C)C2CCCCC2)c1` the Potency was “inactive”.
For `Cc1cccc(CCN(C(=O)Cc2cccs2)C(C(=O)NC2CCCCC2)c2cccnc2)c1` (configuration not stated), the Potency was “inactive”.
With `N#CCSc1nnc(-c2sc3ccccc3c2Cl)o1` the Potency was inconclusive: 9.2 µM [activator, partial curve, poor fit].
In the case of `O=c1ccnc(S/C=C/c2ccccc2)[nH]1`, the Potency was inconclusive: 29.1 µM [activator, single point].
For `Cc1cc(NC(=O)c2ccccc2NS(=O)(=O)c2c(C)c(C)cc(C)c2C)no1`, the Potency was “inactive”.
For `COC(=O)[C@@]12CCCN1[C@H](c1ccc(-c3cccc(Cl)c3)c(OC)c1)[C@H]1C(=O)N(C)C(=O)[C@H]12`, the Potency was inconclusive: 22.4 µM [inhibitor, single point].
With `COc1ccc(NC(=O)CN2CCOCC2)cc1` the Potency was inconclusive: 16.4 µM [activator, partial curve, poor fit].
With `Cc1ccc(S(=O)(=O)N2CCc3ccccc3C2)cc1` the Potency was “inactive”.
For `COc1c(C)cc(Br)cc1C(=O)NC(=S)Nc1ccc(Cl)c(C(=O)O)c1`, the Potency was “inactive”.
In the case of `COc1ccccc1CN1CC(C(=O)NCc2c(F)ccc(C)c2F)CCC1=O` (configuration not stated), the Potency was inconclusive: 20.6 µM [activator, partial curve].
With `O=[N+]([O-])c1ccc(N/N=C/c2cccc(O)c2O)c(S(=O)(=O)N2CCOCC2)c1` the Potency was inconclusive: 29.1 µM [inhibitor, single point].
In the case of `O=C1NCCN1Cc1ccccc1F`, the Potency was “inactive”.
With `Cn1c(=NC(=O)c2ccco2)sc2ccccc21` the Potency was inconclusive: 4.61 µM [activator, partial curve].
In the case of `Cc1ccc(NC(=O)CCCN2C(=O)/C(=C/C=C/c3ccccc3)SC2=S)cc1`, the Potency was inconclusive: 10.3 µM [activator, partial curve].
For `O=[N+]([O-])c1ccc(N/N=C/c2cn(-c3ccccc3)nc2-c2ccccc2)cc1`, the Potency was inconclusive: 3.26 µM [activator, full curve].
In the case of `O=C(COC(=O)C1CC(=O)N(c2ccc3c(c2)OCCO3)C1)Nc1ccc2c(c1)CCC2` (configuration not stated), the Potency was inconclusive: 32.6 µM [activator, partial curve, poor fit].
For `OCCN1CCN(CC(O)COc2ccc(-c3ccccc3)cc2)CC1` (configuration not stated), the Potency was inconclusive: 18.4 µM [activator, partial curve].
With `C=C1C(=O)[C@@]23[C@H](O)C[C@@H]4C(C)(C)CC[C@H](O)[C@]4(C)[C@@H]2C[C@H](O)[C@@H]1[C@H]3O` the Potency was active: 16.4 µM.
In the case of `O=c1ccc2cc(O)c(O)cc2o1`, the Potency was “inactive”.
With `CCc1cc(=O)oc2cc(C)cc(OC(C)C(=O)NC3CC(C)(C)NC(C)(C)C3)c12` (configuration not stated) the Potency was inconclusive: 16.4 µM [activator, partial curve, poor fit].
For `CSc1cccc(NC(=O)c2[nH]c(C)c(C(C)=O)c2C)c1`, the Potency was inconclusive: 6.51 µM [activator, single point].
For `O=c1oc(-c2ccccc2)cc(Cl)c1Cl`, the Potency was inconclusive: 29.1 µM [inhibitor, single point].
For `O=C(NCCCN1CCN(c2cccc(Cl)c2)CC1)c1ccc(N2CCCC2=O)cc1`, the Potency was inconclusive: 8.2 µM [inhibitor, partial curve, poor fit].
With `CCOC(=O)c1ccc(NC(=O)Cc2coc3cc4c(cc23)CCC4)cc1` the Potency was inconclusive: 32.6 µM [inhibitor, partial curve, poor fit].
For `CCN1CCN(Cc2ccc(NC(=O)c3cc(NC(=O)c4cncc(-c5cccs5)c4)cc(OC)c3)cc2C(F)(F)F)CC1`, the Potency was inconclusive: 25.9 µM [inhibitor, single point].
With `CC(=O)c1cccc(NC(=O)C(=O)Nc2cccc3ccccc23)c1` the Potency was inconclusive: 13 µM [activator, partial curve].
With `CCCCOc1ccc(C(=O)Nn2cnnc2)cc1` the Potency was inconclusive: 18.4 µM [activator, partial curve, poor fit].
With `O=C(COc1cccc(C(F)(F)F)c1)Nc1ccc(S(=O)(=O)N2CCCCC2)cc1` the Potency was “inactive”.
For `COCCCNC(=O)C[C@H]1C[C@H](C(=O)N2CCCCC2)[C@@]2(CCc3ccccc3)c3[nH]c4cc(-c5ccco5)ccc4c3CCN2C1=O`, the Potency was inconclusive: 29.1 µM [inhibitor, single point].
With `COC(=O)c1ccc(CNC(=O)COC(=O)c2cccs2)cc1` the Potency was inconclusive: 25.9 µM [activator, single point].
In the case of `COC(=O)c1cc(NC(=O)CSc2ncn[nH]2)ccc1Cl`, the Potency was “inactive”.
With `COc1ccc2c(C)nc(Nc3nc(C)cc(C)n3)nc2c1` the Potency was inconclusive: 13 µM [inhibitor, partial curve].
For `O=C(NN1C(=O)C2C3C=CC(C4CC34)C2C1=O)c1cccc(Br)c1` (configuration not stated), the Potency was “inactive”.
With `CCOC(=O)c1ccc(NC(=S)Nc2cccc(N)n2)cc1` the Potency was inconclusive: 3.26 µM [activator, partial curve, poor fit].
For `COc1cc(OC)cc(C(=O)NC(=S)N2CCN(c3ccc(C(F)(F)F)cc3[N+](=O)[O-])CC2)c1`, the Potency was inconclusive: 23.1 µM [inhibitor, single point].
With `Cc1noc(NS(=O)(=O)c2ccc(N3Cc4ccccc4C3=O)cc2)c1C` the Potency was inconclusive: 32.6 µM [activator, partial curve, poor fit].
For `Cc1onc(NC(=O)NC(=O)c2ccccc2F)c1Br`, the Potency was inconclusive: 20.6 µM [activator, partial curve].
For `CCn1c(CNc2nc(-c3ccccc3)cs2)nnc1SCC(=O)NCc1ccco1`, the Potency was “inactive”.
In the case of `OC(CN1C2=NCCN2c2ccccc21)c1ccc(Br)cc1` (configuration not stated), the Potency was inconclusive: 20.6 µM [inhibitor, partial curve, poor fit].
With `NC(=O)CSc1nc2scc(-c3ccco3)c2c(=O)n1-c1ccccc1` the Potency was “inactive”.
With `O=C(CCCN1C(=O)/C(=C/c2ccccc2Cl)SC1=S)Nc1cccnc1` the Potency was inconclusive: 23.1 µM [inhibitor, single point].
For `Cc1ccc(CN(CC(=O)NCc2ccccn2)S(=O)(=O)c2ccccc2)cc1`, the Potency was “inactive”.
For `Cc1ccc(-c2nn3c(-c4ccco4)nnc3c3ccccc23)cc1S(=O)(=O)NCC1CCCO1` (configuration not stated), the Potency was inconclusive: 9.2 µM [inhibitor, partial curve].
With `COc1ccc(N2CC(C(=O)N[C@H](C(=O)NC3CCCCC3)C(C)C)CC2=O)cc1` (some centres not stated) the Potency was “inactive”.
In the case of `CCN(CC)C(=O)c1cc(-c2ccccc2OC)on1`, the Potency was inconclusive: 23.1 µM [activator, partial curve].
For `O=C(c1cc(C2CC2)on1)N1CCN(C(c2ccccc2)c2ccccc2)CC1`, the Potency was inconclusive: 2.31 µM [inhibitor, partial curve].
For `Cc1ccc(-n2cc3c(=O)n(C)c(=O)n(C)c3c2)cc1C`, the Potency was “inactive”.
In the case of `O=C1c2ccccc2C(=O)N1CCCCN(C(=O)c1cc2ccccc2oc1=O)c1ccc(F)cc1F`, the Potency was “inactive”.
In the case of `Cc1ccc(NC(=O)CNC(=O)c2ccco2)c(Cl)c1`, the Potency was inconclusive: 29.1 µM [activator, single point].
In the case of `O=C(CCCC(=O)c1ccc(F)cc1)c1ccc(F)cc1`, the Potency was inconclusive: 18.3 µM [activator, partial curve].
In the case of `COc1ccccc1CN1CCCC(CNC(=O)c2cccc3ccccc23)C1` (configuration not stated), the Potency was “inactive”.
With `CCCCN(Cc1cc2cc(OC)ccc2[nH]c1=O)S(=O)(=O)c1ccc(C)cc1` the Potency was inconclusive: 25.9 µM [inhibitor, single point].
In the case of `COc1cccc(NC(=O)COc2ccc3c(c2)CCC3)c1`, the Potency was inconclusive: 20.6 µM [activator, single point].
In the case of `O=C(CN1CCN(S(=O)(=O)c2ccc(F)cc2)CC1)c1ccc(O)c(O)c1`, the Potency was inconclusive: 29.1 µM [inhibitor, single point].
In the case of `COc1cccc2[nH]c3c(N4CC(C)CC(C)C4)ncnc3c12` (configuration not stated), the Potency was active: 14.6 µM.
With `CCNC(=S)NNC(=O)c1cc(-c2cccnc2)nc2ccccc12` the Potency was inconclusive: 32.6 µM [activator, partial curve, poor fit].
In the case of `CCOCCCn1c(=NC(=O)c2ccco2)c(C(=O)OCC)cc2c(=O)n3cccc(C)c3nc21`, the Potency was inconclusive: 18.3 µM [inhibitor, single point].
For `Cc1ccc(C(=O)CCC(=O)Nc2ncccc2C)cc1`, the Potency was inconclusive: 17.8 µM [activator, single point].
In the case of `CCOC(=O)c1cc(C(=O)Nc2ccc(C)c(F)c2)nn1C`, the Potency was inconclusive: 16.4 µM [activator, partial curve].
For `Cc1nn(C)c(C)c1NS(=O)(=O)c1ccc(N2CCCC2=O)cc1`, the Potency was inconclusive: 16.4 µM [inhibitor, partial curve].
For `CSc1ccc(-c2nnn(Cc3ccc(Br)cc3)n2)cc1`, the Potency was inconclusive: 29.1 µM [activator, single point].
With `COc1cc(NC(=S)N2CCN(C/C=C/c3ccccc3)CC2)cc(OC)c1` the Potency was “inactive”.
With `CC(NC(=O)COC(=O)c1ccc(Br)o1)c1ccccc1` (configuration not stated) the Potency was inconclusive: 20.6 µM [activator, partial curve, poor fit].
For `CC(C)(C)N(Cc1ccccc1)C(=O)COc1cccnc1[N+](=O)[O-]`, the Potency was “inactive”.
For `CCn1nnc2cc(C(=O)Nc3cc(OC)cc(OC)c3)ccc21`, the Potency was inconclusive: 14.6 µM [activator, single point].
With `O=C(c1ccc(N2CCCC2)c([N+](=O)[O-])c1)N1CCN(S(=O)(=O)c2ccccc2)CC1` the Potency was inconclusive: 29.1 µM [inhibitor, single point].
